# Assay results: PubChem BioAssay AID1439 (NMMLSC, 2008)
# Protein sequences, listed by entry. Tags and fused reporters are not part of them.
# UniProt P09471, whole entry, looked up: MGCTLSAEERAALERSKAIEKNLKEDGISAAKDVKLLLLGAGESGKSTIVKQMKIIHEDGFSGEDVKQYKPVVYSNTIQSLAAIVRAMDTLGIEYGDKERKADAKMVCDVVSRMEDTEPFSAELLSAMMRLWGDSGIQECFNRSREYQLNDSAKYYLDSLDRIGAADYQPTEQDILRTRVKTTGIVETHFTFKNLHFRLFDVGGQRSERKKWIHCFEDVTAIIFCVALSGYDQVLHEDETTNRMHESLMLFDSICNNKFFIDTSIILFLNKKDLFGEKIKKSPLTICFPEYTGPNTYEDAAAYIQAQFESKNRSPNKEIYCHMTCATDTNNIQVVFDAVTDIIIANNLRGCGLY
# In all, about 220,000 compounds went through this assay and about 770 (0.35%) were called active. The inconclusive results got no clear call from the source; some entries with a clear call stand among them for comparison. No stated cut-off is given here; in the data, active means binding response below about 49% or above about 150%; inconclusive means no clear call, values can overlap the other calls; inactive means in between.
# Molecular target: Guanine nucleotide-binding protein G(o) subunit alpha (Homo sapiens) (UniProt P09471)
# Assay: RGS7-Galphao binding modulators, primary screen, biochemical, multiplexed bead flow cytometry (AID 1439);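 further: fluorescent Galphao held in activated GDP-AlF4 state binding bead-coupled RGS7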
# Conditions: at 10 µM, actives lie on both sides
row,SMILES,binding response (% of control)
1,CC#CCN1c2ccccc2[C@]23C[C@@H](C(=O)OC)N=C2NC(C(=O)OC)=C(C(=O)OC)[C@H]13,inconclusive: 114%
2,O=c1/c(=C/c2ccccn2)sc2n1CN(c1ccccc1)CN=2,inactive: 92.4%
3,CN(C(=O)COC(=O)/C=C/c1ccccc1[N+](=O)[O-])c1ccccc1,inconclusive: 84.9%
4,COc1cc(/C=C/C(=O)OC(C)C(=O)Nc2c(C)n(C)n(-c3ccccc3)c2=O)ccc1OCC#N (stereo not given),inconclusive: 91.8%
5,CCOC(=O)Cc1nnc(NC(=O)C23CC4CC(CC(C4)C2)C3)s1,inconclusive: 110%
6,Cc1cc(C)n(C(=O)/C(C#N)=N/Nc2cc(Cl)cc(Cl)c2)n1,inactive: 98.9%
7,O=C(c1cccc(S(=O)(=O)Nc2ccccc2F)c1)N1CCN(c2ccccc2F)CC1,inconclusive: 102%
8,CCN(CC)c1ccc(NC(=O)C2=CCN(S(=O)(=O)c3ccc(F)cc3)CC2)c(C)c1,inactive: 103%
9,CCOC(=O)c1c(NC(=O)C2CC2)sc2c1CC(C)(C)OC2,inconclusive: 113%
10,CCNC(=S)N/N=C/c1cc(C)n(-c2ccc(Cl)cc2)c1C,inconclusive: 109%
11,CC(C)OC(=O)c1cccc(-c2ccc(C=O)o2)c1,inactive: 97.8%
12,COc1ccc(C2NC(=O)C(C)S2)cc1 (stereo not given),inactive: 136%
13,C=CCN1CCN(C(CCC)c2nnnn2Cc2ccco2)CC1 (stereo not given),inactive: 99.8%
14,CCOc1ccc(N2C(=O)S/C(=C\c3ccc(O)c(OCC)c3)C2=O)cc1,inconclusive: 434%
15,CC(c1ccccc1)n1c(-c2cccs2)nc2c(c(=O)c3ccccc3n2C)c1=O (stereo not given),inconclusive: 86%
16,Cc1ccc(NC(=O)c2cc([N+](=O)[O-])ccc2N2CCCC2)cc1,inconclusive: 92.5%
17,Cc1n[nH]c(=O)n1-c1ccc(OCc2ccccc2)cc1,inactive: 97.5%
18,Cc1ccc(C(=O)N2CCC3(CC2)Oc2ccc(F)cc2C(=O)C32CC(c3cccnc3)=NO2)s1 (stereo not given),inconclusive: 97.2%
19,O=C(NCCCn1ccnc1)c1cc(C(=O)C2CCCCC2)c[nH]1,inconclusive: 135%
20,CCOC(=O)N1CCc2[nH]c3ccc(C)cc3c2C1,inconclusive: 74%
21,CC1CCN(C(=S)Nc2cccc(S(=O)(=O)N(C)C)c2)CC1,inconclusive: 86.1%
22,Cc1cc(-c2ccccc2)n2nc(N)nc2n1,inconclusive: 98.4%
23,O=C(O)c1cccnc1C(=O)N1CCc2c([nH]c3ccccc23)C1C(F)(F)F (stereo not given),inconclusive: 361%

row,SMILES,binding response (% of control)
1,O=C(N/N=C\c1c(O)ccc2ccccc12)c1ccc(Cn2cccn2)o1,inactive: 58.2%
2,COc1cccc(Cn2c(Oc3ccccc3)nc3c2c(=O)n(C)c(=O)n3C)c1,inactive: 89.8%
3,O=C1CC(=O)N2N=C(c3ccc([N+](=O)[O-])cc3)SC2=N1,inactive: 92.9%
4,COCCCNC(=S)N/N=C/c1ccccc1O,inconclusive: 38.6%
5,COC(=O)c1cc(-c2ccc(S(=O)(=O)N3CCCC(C)C3)cc2)c(C(F)(F)F)s1 (stereo not given),inconclusive: 111%
6,Cc1ccc2[nH]c(C(=O)O)c(NC(=O)[C@@H]3C[C@@H]3c3ccccc3)c2c1,inconclusive: 91%
7,O=C1N[C@@H](Cc2ccccc2)[C@@H](c2ccco2)O1,inconclusive: 75.3%
8,CCn1cc(C(=O)O)c(=O)c2cnc(N3CCN(C(=S)Nc4ccc(F)cc4)CC3)nc21,inconclusive: 148%
9,CN(NC1OC(=O)c2ccccc21)c1ccccc1[N+](=O)[O-] (stereo not given),inconclusive: 91%
10,CC1(C)CC(=O)C(C=Nc2cccnc2/N=C/C2=C(O)CC(C)(C)CC2=O)=C(O)C1,inconclusive: 112%
11,O=C(NC(=S)NCCCN1CCOCC1)c1cccc2ccccc12,inactive: 97.1%
12,Nc1n[nH]c(=S)n1/N=C1/C(=O)Nc2ccccc21,inactive: 111%
13,CCc1c(C(=O)NNC(=S)NCCc2ccccc2)csc1C,inactive: 96.8%
14,COc1ccc(-c2cc3nc4n(c(=O)c3s2)CCCCC4)cc1,inconclusive: 119%
15,Clc1ccccc1CSc1nncn1-c1cccnc1,inconclusive: 110%
16,O=C(Cn1nc(-c2ccccc2)ccc1=O)NCCCN1CCOCC1,inconclusive: 81.5%
17,CN(C)c1cccc2c1c(NC(=O)Nc1ccc(F)cc1F)nn2C,inconclusive: 175%
18,Cc1cc(C)c2cc(C(=O)N3CCC(C(=O)c4ccc(F)cc4)CC3)[nH]c2c1,inconclusive: 121%
19,O=C(O)c1c(N2CCCCC2)ccc([N+](=O)[O-])c1N1CCCCC1,inconclusive: 119%
20,COC(=O)CCCC1=CC2=CC(=O)C(C)(OC(=O)c3cccs3)C(=O)C2=CN1Cc1ccccc1 (stereo not given),inconclusive: 84.2%
21,CCC(CC)NC(=O)Nc1ccc(C)cc1,inconclusive: 112%
22,c1ccc(-c2ccccc2OCCCN2CCCCCC2)cc1,inconclusive: 82.5%

# For reference, some entries already given:
row,SMILES,binding response (% of control)
5,COC(=O)c1cc(-c2ccc(S(=O)(=O)N3CCCC(C)C3)cc2)c(C(F)(F)F)s1 (stereo not given),inconclusive: 111%
6,Cc1ccc2[nH]c(C(=O)O)c(NC(=O)[C@@H]3C[C@@H]3c3ccccc3)c2c1,inconclusive: 91%
